The exact form of at least one protein or probe is not confirmed. At least one verdict was read from the data and is not stated in words by the source. Tags and fusion partners may be left off the protein sequences shown.
Biological target: T1, C9S SqrR C23S (UniProt D5AT91)
T1 sequence (looked up, limits assumed): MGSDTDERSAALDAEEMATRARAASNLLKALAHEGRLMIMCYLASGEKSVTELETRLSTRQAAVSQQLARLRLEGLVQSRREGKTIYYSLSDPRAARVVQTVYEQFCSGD
Test: fluorescence anisotropy
Details: 300 mM NaCl, value not in material

Q: Does “TTGCCTATTCATATTCTCATATGTGC (double strand) [0785 (SQR promoter operator, rcc00785)]” bind?
A: binds
